Results from publication PMC11555231.
No constants are given. Whether binding was seen depends on the method and setting. In cells and extracts the contact can be indirect. Some results given as binding are weak or reduced against the parent protein; the word gives no strength.

How the values were obtained:
[1] = biological target: human PADI4 stably expressed in mouse ES cells (hPADI4-stable) (human) (UniProt Q9UM07); test: pull-down; cellular hPADI4 isolated from lysate of hPADI4-stable mES cells by its ligand bio-PADI4_7 on streptavidin beads; partners detected by immunoblot
[2] = biological target: human PADI4 stably expressed in E14 mouse embryonic stem cells (hPADI4-stable) (human) (UniProt Q9UM07); test: pull-down; PADI4 isolated through bio-PADI4_7 on streptavidin beads from lysate of hPADI4-stable mES cells; associated proteins detected by immunoblot (Fig. S16B)

Substance: Impdh2 (from UniProt P24547 1-514)
- binding [1]: binds
- binding [2]: binds
